Data published in patent publication US4290943 (dated 1981).

Experiment: general procedure: peptide synthesis; insoluble support material, small globules of 0.1 to 0.2 mm diameter; dicyclohexylcarbodiimide; dicyclohexylcarbodiimide/1-hydroxybenzotriazole (HOBt)
Details: whole synthesis

“Ddz-Ile-Lys[Z]-Cys[Acm]-Asn-Cys[StBu]-Lys[Z]-Arg[Tos]” gave an isolated yield (with respect to the amino acids initially applied to the support material) of 34%.

With Ddz-Pro-His-Ile-Cys[Acm] the isolated yield was 20%.
